19 compounds from PubChem BioAssay AID270 (DTP/NCI, 2004) can be followed below.

The structures appear in SMILES notation. The list is a part of this screen's results and no random one: it gathers tests that were run many times, whatever their T/C, doses with no T/C, and many T/C values between a quarter and a half above the control. Further doses and runs are listed elsewhere. T/C: endpoint of the treated group in % of that of the vehicle group. Schedule codes are those of the source, read here as Q, the interval in days (D) or hours (H), X, the number of doses. Some entries give survivors of the animals treated and no T/C: the source holds a T/C of zero for them, seemingly a mark for toxic or unscored doses. Some survivor counts are full or nearly so, which does not show that the dose was tolerated: the source hardly ever lists a survival T/C far under the control, and the zero likely stands for such cases as well. Survivors were counted at the toxicity check, usually on the fifth day, unless a day is given; later deaths do not show. Some entries were tested several times; the results are listed from low to high. For survival time, this PubChem deposit counts one and a half times the control or more as active, and values a quarter to a half above the control carry no call in these data; other NCI protocols may use other cut-offs.

The subject of the assay is BDF1 mice, s.c. Lewis lung carcinoma, T/C %. As to the kind of experiment: NCI In Vivo Anticancer Drug Screen. Data for tumor model Lewis Lung Carcinoma (subcutaneous) in B6D2F1 (BDF1) mice. The essentials:
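Antitumor effect in vivo is scored from survival or tumor burden, reported as treated relative to vehicle controls.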

Setting [1] is: T/C endpoint: median survival time, dose: 32.0 mg/kg/injection, schedule: Q07DX002 (ip), vehicle: saline with Tween-80, higher T/C = longer survival.
The mark [2] stands for this setting: T/C endpoint: mean tumor weight, dose: 100.0 mg/kg/injection, schedule: Q01DX011 (ip), vehicle: carboxymethylcellulose (CMC), higher T/C = larger tumour.
[3] abbreviates: T/C endpoint: median survival time, dose: 100.0 mg/kg/injection, schedule: Q01DX009 (ip), vehicle: Klucel (hydroxypropylcellulose) (HPC), higher T/C = longer survival.
Setting [4] is: T/C endpoint: median survival time, dose: 200.0 mg/kg/injection, schedule: Q01DX009 (ip), vehicle: Klucel (hydroxypropylcellulose) (HPC), higher T/C = longer survival.
Where [5] appears, read: T/C endpoint: median survival time, dose: 400.0 mg/kg/injection, schedule: Q01DX009 (ip), vehicle: Klucel (hydroxypropylcellulose) (HPC), higher T/C = longer survival.

Regarding `O=NN(CCF)C(=O)NC1CCSCC1`, the survivor count is, setting by setting: (T/C endpoint: median survival time, dose: 10.0 mg/kg/injection, schedule: Q01DX009 (ip), vehicle: saline with Tween-80, higher T/C = longer survival) 10 of 10; (T/C endpoint: median survival time, dose: 20.0 mg/kg/injection, schedule: Q01DX009 (ip), vehicle: saline with Tween-80, higher T/C = longer survival) 0 of 10; (T/C endpoint: median survival time, dose: 23.0 mg/kg/injection, schedule: Q04DX004 (ip), vehicle: saline with Tween-80, higher T/C = longer survival) 10 of 10; (T/C endpoint: median survival time, dose: 25.0 mg/kg/injection, schedule: Q07DX002 (ip), vehicle: saline with Tween-80, higher T/C = longer survival) 0 of 10 on day 11; under setting [1], 0 of 10 on day 11 and 1 of 10; (T/C endpoint: median survival time, dose: 39.0 mg/kg/injection, schedule: Q07DX002 (ip), vehicle: saline with Tween-80, higher T/C = longer survival) 0 of 10 on day 11 and 6 of 10. Moreover, the survivor count reads like this: (T/C endpoint: median survival time, dose: 40.0 mg/kg/injection, schedule: Q01DX009 (ip), vehicle: saline with Tween-80, higher T/C = longer survival) 0 of 10; (T/C endpoint: median tumor weight (est.), dose: 41.0 mg/kg/injection, schedule: Q01DX001 (ip), vehicle: saline with Tween-80, higher T/C = larger tumour) 5 of 10 on day 19. Further, the T/C runs as follows: (T/C endpoint: median survival time, dose: 13.0 mg/kg/injection, schedule: Q04DX004 (ip), vehicle: saline with Tween-80, higher T/C = longer survival) 143 % of control; (T/C endpoint: median survival time, dose: 20.0 mg/kg/injection, schedule: Q07DX002 (ip), vehicle: saline with Tween-80, higher T/C = longer survival) 139 % of control; under setting [1], 128 % of control.

Take `CCC(CCC(C)C1CCC2C3CC=C4CC(OC(=O)CCC(=O)O)CCC4(C)C3CCC12C)C(C)C` (stereo not drawn): the survivor count reads like this: (T/C endpoint: mean tumor weight, dose: 300.0 mg/kg/injection, schedule: Q01DX011 (ip), vehicle: water, higher T/C = larger tumour) 3 of 6; (T/C endpoint: mean tumor weight, dose: 800.0 mg/kg/injection, schedule: Q01DX011 (ip), vehicle: water, higher T/C = larger tumour) 1 of 6.

As to `CN(N=O)C(=O)N[C@@H](C=O)[C@@H](O)[C@H](O)[C@H](O)CO`, the survivor count reads like this: (T/C endpoint: mean tumor weight (est.), dose: 160.0 mg/kg/injection, schedule: Q01DX009 (ip), vehicle: water, higher T/C = larger tumour) 4 of 8; (T/C endpoint: median survival time, dose: 80.0 mg/kg/injection, schedule: Q01DX009 (ip), vehicle: water, higher T/C = longer survival) 8 of 8; (T/C endpoint: median survival time, dose: 160.0 mg/kg/injection, schedule: Q01DX009 (ip), vehicle: water, higher T/C = longer survival) 4 of 8; (T/C endpoint: median survival time, dose: 320.0 mg/kg/injection, schedule: Q01DX001 (ip), vehicle: other, higher T/C = longer survival) 10 of 10; (T/C endpoint: median survival time, dose: 640.0 mg/kg/injection, schedule: Q01DX001 (ip), vehicle: other, higher T/C = longer survival) 2 of 10 and 3 of 10; (T/C endpoint: median survival time, dose: 640.0 mg/kg/injection, schedule: Q01DX001 (ip), vehicle: saline, higher T/C = longer survival) 0 of 10.

Take `CC1CN1c1nc(N2CC2C)nc(N2CC2C)n1` (stereo not drawn): the survivor count (T/C endpoint: median survival time, dose: 16.0 mg/kg/injection, schedule: Q01DX009 (ip), vehicle: saline, higher T/C = longer survival) is reported as 1 of 10.

Consider `CN(C)C(=O)N(CCCl)N=O`, for which, where the note is “T/C endpoint: median survival time, dose: 25.0 mg/kg/injection, schedule: Q01DX001 (ip), vehicle: water, higher T/C = longer survival”, the T/C is 131 % of control. Further, the survivor count (T/C endpoint: median survival time, dose: 50.0 mg/kg/injection, schedule: Q01DX001 (ip), vehicle: water, higher T/C = longer survival) is listed as 8 of 10.

Turning to `CC(=O)OCC(=O)[C@@]1(O)CC[C@H]2[C@@H]3C[C@H](C)C4=CC(=O)C=C[C@]4(C)[C@@]3(Br)[C@@H](O)C[C@@]21C`, the survivor count is reported as 4 of 8 (T/C endpoint: mean tumor weight, dose: 40.0 mg/kg/injection, schedule: Q01DX011 (sc), vehicle: steroid suspending solution, higher T/C = larger tumour); 2 of 8 (T/C endpoint: mean tumor weight, dose: 60.0 mg/kg/injection, schedule: Q01DX011 (sc), vehicle: steroid suspending solution, higher T/C = larger tumour); 3 of 6 under setting [2]; 2 of 6 (T/C endpoint: mean tumor weight, dose: 200.0 mg/kg/injection, schedule: Q01DX011 (ip), vehicle: carboxymethylcellulose (CMC), higher T/C = larger tumour).

Take `CN(/N=N/c1nc[nH]c1C(N)=O)C(C)(C)C`: under setting [3], the survivor count is 10 of 10.

For `NC(Cc1cc(I)c(Oc2ccc(O)c(I)c2)c(I)c1)C(=O)O` (stereo not drawn), under “T/C endpoint: mean tumor weight, dose: 50.0 micrograms/kg/injection, schedule: Q01DX011 (ip), vehicle: saline, evaluated on day 12, higher T/C = larger tumour”, the T/C is 144 % of control.

With `CC(=O)[C@@]1(O)CC[C@H]2[C@@H]3C[C@H](C)C4=CC(=O)C=C[C@]4(C)[C@@]3(F)[C@@H](O)C[C@@]21C`, the survivor count is listed as 3 of 6 (T/C endpoint: mean tumor weight, dose: 12.5 mg/kg/injection, schedule: Q01DX011 (sc), vehicle: steroid suspending solution, higher T/C = larger tumour) and 2 of 6 (T/C endpoint: mean tumor weight, dose: 100.0 mg/kg/injection, schedule: Q01DX011 (sc), vehicle: steroid suspending solution, higher T/C = larger tumour).

As to `CCO/C=C1\SC(=S)N(c2ccccc2OC)C1=O`, the survivor count is, setting by setting: (T/C endpoint: median survival time, dose: 25.0 mg/kg/injection, schedule: Q01DX009 (ip), vehicle: Klucel (hydroxypropylcellulose) (HPC), higher T/C = longer survival) 10 of 10; (T/C endpoint: median survival time, dose: 50.0 mg/kg/injection, schedule: Q01DX009 (ip), vehicle: Klucel (hydroxypropylcellulose) (HPC), higher T/C = longer survival) 10 of 10; under setting [3], 10 of 10; under setting [4], 10 of 10; under setting [5], 6 of 10.

As to `CCn1c2ccccc2c2cc(NC(=O)N(CCCl)N=O)ccc21`, the survivor count was 10 of 10 (T/C endpoint: median survival time, dose: 200.0 mg/kg/injection, schedule: Q01DX001 (ip), vehicle: saline with Tween-80, higher T/C = longer survival) and 10 of 10 (T/C endpoint: median survival time, dose: 400.0 mg/kg/injection, schedule: Q01DX001 (ip), vehicle: saline with Tween-80, higher T/C = longer survival).

As to `CN(C)[C@@H]1C(=O)C(C(N)=O)=C(O)[C@]2(O)C(=O)C3C(=O)c4c(O)ccc(Cl)c4[C@](C)(O)[C@H]3C[C@@H]12` (stereo partly drawn), the survivor count by setting is: under setting [3], 10 of 10; under setting [4], 9 of 10; under setting [5], 7 of 10.

In the case of `NC(=O)N(CCCl)N=O`, the survivor count is, setting by setting: (T/C endpoint: mean tumor weight, dose: 5.0 mg/kg/injection, schedule: Q01DX011 (ip), vehicle: saline, higher T/C = larger tumour) 2 of 6; (T/C endpoint: median survival time, dose: 8.0 mg/kg/injection, schedule: Q01DX001 (ip), vehicle: saline + alcohol, higher T/C = longer survival) 10 of 10; (T/C endpoint: median survival time, dose: 16.0 mg/kg/injection, schedule: Q01DX001 (ip), vehicle: saline + alcohol, higher T/C = longer survival) 9 of 10. In addition, the T/C (T/C endpoint: median survival time, dose: 2.0 mg/kg/injection, schedule: Q01DX001 (ip), vehicle: saline + alcohol, higher T/C = longer survival) was 135 % of control and the T/C (T/C endpoint: median survival time, dose: 4.0 mg/kg/injection, schedule: Q01DX001 (ip), vehicle: saline + alcohol, higher T/C = longer survival) was 145 % of control.

For `Nc1ccc(N=Nc2ccccc2)c(N)c1`, the survivor count reads like this: (T/C endpoint: median survival time, dose: 18.75 mg/kg/injection, schedule: Q01DX009 (ip), vehicle: Klucel (hydroxypropylcellulose) (HPC), higher T/C = longer survival) 10 of 10; (T/C endpoint: median survival time, dose: 37.5 mg/kg/injection, schedule: Q01DX009 (ip), vehicle: Klucel (hydroxypropylcellulose) (HPC), higher T/C = longer survival) 10 of 10; under setting [3], 5 of 10; under setting [5], 2 of 10.

As to `O=C(N/N=C/c1ccc(O)cc1O)c1cccnc1`, the survivor count reads like this: (T/C endpoint: median survival time, dose: 12.5 mg/kg/injection, schedule: Q01DX009 (ip), vehicle: olive oil, sesame oil, peanut oil, higher T/C = longer survival) 10 of 10; (T/C endpoint: median survival time, dose: 50.0 mg/kg/injection, schedule: Q01DX009 (ip), vehicle: olive oil, sesame oil, peanut oil, higher T/C = longer survival) 10 of 10; (T/C endpoint: median survival time, dose: 100.0 mg/kg/injection, schedule: Q01DX009 (ip), vehicle: olive oil, sesame oil, peanut oil, higher T/C = longer survival) 9 of 10; (T/C endpoint: median survival time, dose: 200.0 mg/kg/injection, schedule: Q01DX009 (ip), vehicle: olive oil, sesame oil, peanut oil, higher T/C = longer survival) 0 of 10.

As for `Nc1ncnc2c1ncn2C1OC(CO)C(O)C1O` (stereo not drawn), the survivor count (T/C endpoint: median survival time, dose: 60.0 mg/kg/injection, schedule: Q03HX024 (ip), vehicle: saline with Tween-80, higher T/C = longer survival) is 10 of 10.

`CC(C)(c1ccccc1)c1ccc(O)cc1`: the survivor count under setting [2] is given as 2 of 6 and the survivor count (T/C endpoint: mean tumor weight, dose: 150.0 mg/kg/injection, schedule: Q01DX011 (ip), vehicle: carboxymethylcellulose (CMC), higher T/C = larger tumour) is recorded as 0 of 6.

With `c1ccc([As+](c2ccccc2)(c2ccccc2)c2ccccc2)cc1`, for the setting “T/C endpoint: median survival time, dose: 7.5 mg/kg/injection, schedule: Q01DX009 (ip), vehicle: Klucel (hydroxypropylcellulose) (HPC), higher T/C = longer survival”, the survivor count is given as 10 of 10.

Take `CCOC(=O)c1c[nH]c2c(Cl)c(C)ccc2c1=O`: the T/C (T/C endpoint: mean tumor weight, dose: 233.0 mg/kg/injection, schedule: Q01DX011 (ip), vehicle: other, evaluated on day 12, higher T/C = larger tumour) is 127 % of control.
